## Primary screen of a compound library

The values are deposited in ChEMBL (CHEMBL3988442, “University of Dundee, Small-Polar-MMV Screening Library” (2021)).

Each number is a percent effect as filed. The record does not define 0% and 100%; most values in the screen are far below 50% and negative numbers occur (in some assays of this library far below -100). Compounds were drawn at random from those tested, without regard to their results.

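Whole-cell assay for inhibitors of Mycobacterium tuberculosis growth, labelled Cornell in the record; the read-out is not stated. The concentration is filed as 10 mM, unlikely as a test dose, so the dose is not known. Higher means stronger inhibition (inferred from two other growth screens of the library). Of about 53,000 compounds tested this way, about 900 (1.7%) reached 50% or more in at least one test.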

| # | compound | effect |
|---|---|---|
| 1 | `Cc1cc(N2CCc3c(ncn3C3CC3)C2)nc(N)n1` | -38.07 |
| 2 | `CC(c1cccnc1)N1CCN(CCCC#N)CC1` (centres undefined) | 25.99 |
| 3 | `CCn1nc(C)c(NC(=O)CN2CCC(c3ccccc3Cl)C2)c1C` (centres undefined) | -15.86 |
| 4 | `O=C(NC1CC2(CCN(CCO)CC2)c2ccccc21)c1ccsc1.O=C(O)C(F)(F)F` (centres undefined) | 17.82 |
| 5 | `O=C(Nc1ccccc1N1CCOC1=O)N1CCc2sccc2C1` | -1.781 |
| 6 | `CCOc1ncccc1CNC(=O)CN1CCCCCC1=O` | 10.55 |
| 7 | `COc1ccc2c(c1)C1(CCNCC1)CC2NC1CC1.Cl.Cl` (centres undefined) | -29.34 |
| 8 | `COc1cccc2c1OCC(NC(=O)NC1CCN(C3CC3)CC1)C2` (centres undefined) | 10.78 |
| 9 | `[H][C@@]12CS(=O)(=O)C[C@]1([H])N(Cc1nc3ccccc3[nH]1)CCN2CCC` | 14.83 |
| 10 | `O=C(O)c1ccc(S(=O)(=O)Nc2c(F)cccc2-n2cccn2)cc1` | 7.087 |
| 11 | `Cc1ccc(OCC2CCCN(C(=O)CCn3ccccc3=O)C2)cc1` (centres undefined) | 1.42 |
| 12 | `COc1nc2c(cc1C(=O)NCCCc1nnc(N)s1)CCC2` | 20.93 |
| 13 | `Cc1ccc(-c2c[nH]c([C@@H]3COCCN3Cc3ncc[nH]3)n2)cc1` | -5.568 |
| 14 | `Cc1cnn(CC2CCCN2CC(=O)N(C)Cc2cnn(C)c2)c1` (centres undefined) | 9.137 |
| 15 | `Cc1cccnc1C(=O)N1CCCC(Cc2cncc3ccccc23)C1` (centres undefined) | -16.01 |
| 16 | `[H][C@@]12CS(=O)(=O)C[C@]1([H])NCCN2c1ccnc(N(C)CCN2CCCC2)n1` | -5.416 |
| 17 | `O=C(CN1CCN(c2ccnc3c(F)ccc(F)c23)CC1)NC1CC1` | -14.17 |
| 18 | `O=c1ccc(-c2cccs2)nn1CN1CCN(C2CCS(=O)(=O)C2)CC1` (centres undefined) | 26.29 |
| 19 | `O=C(c1ccncc1)N1CCCC(c2cc(C(F)F)n3ncnc3n2)C1` (centres undefined) | 7.462 |
| 20 | `COc1ncccc1CNC(=O)c1cccnc1O` | 15.33 |
| 21 | `O=C([C@H]1CCCO1)N1CC[C@H](O)[C@@H]1Cc1cccnc1` | -1.264 |
| 22 | `Cc1ccccc1C(=O)N1CC[C@@H](N2CCC(O)CC2)[C@H](O)C1` | -3.857 |
| 23 | `CC(C(=O)N1CCN(C(=O)c2ccc(F)cc2)CC1)n1ccnc1` (centres undefined) | -5.712 |
| 24 | `COCCN1CCC(c2nc3ccccc3[nH]2)CC1` | 0.1744 |
| 25 | `CCc1c(C)nc2cc(C3CCN(Cc4ccccc4F)C3)nn2c1O` (centres undefined) | 8.753 |
| 26 | `O=C(O)C(F)(F)F.[H][C@@]12CCCO[C@]1([H])[C@H](OCc1cccnc1)CN2S(=O)(=O)N(C)C` | -50.79 |
| 27 | `Cc1ncsc1C(=O)N1CCc2nnc(C3CCCCN3C)n2CC1` (centres undefined) | 8.689 |
| 28 | `Cc1cc(NC(=O)Cn2ccc(=O)c3ccccc32)[nH]n1` | -8.025 |
| 29 | `CN(C)c1ccc(C(=O)N2CCCC2c2cnn(C)c2)cn1` (centres undefined) | 5.002 |
| 30 | `CN(C)CC(=O)N1CCC2(CCc3cc(-c4cccnc4)ccc32)CC1.O=C(O)C(F)(F)F.O=C(O)C(F)(F)F` | 11.92 |
| 31 | `CN(CCCO)Cc1cc(Cl)ccc1OCC(O)CN1CCCCCC1` (centres undefined) | -0.7519 |
| 32 | `CCCN1CCCC2(CCN(Cc3cncn3C3CCCC3)C2)C1=O` (centres undefined) | -10.65 |
| 33 | `CCN1CCC2(CC1)c1nc[nH]c1CCN2S(C)(=O)=O` | 6.443 |
| 34 | `COc1ccc(Br)cc1CCC(=O)N1CCCC1` | 25.92 |
| 35 | `O=C(NCC1COC2(CCOCC2)O1)c1csc(-c2cccc(Cl)c2)n1` (centres undefined) | 28.4 |
| 36 | `O=C(O)C(F)(F)F.[H][C@@]12C[C@H](c3nc(C)no3)CN(Cc3cccs3)[C@]1([H])CCO2` | 27.94 |
| 37 | `Cn1cnnc1-c1cncc(NCc2ccccc2Br)c1` | -46.6 |
| 38 | `Cc1ccc(CN(C)C(=O)CNC(=O)N2CCc3ccccc3C2)o1` | -20.97 |
| 39 | `CCOC(=O)c1cnn(C2CCN(C(=O)CC3C=CCC3)CC2)c1N` (centres undefined) | 13.98 |
| 40 | `COc1ccc(CNC(c2cccc(F)c2)c2cnn(C)c2)cc1` (centres undefined) | 25.11 |
| 41 | `Cc1noc(C(C)Nc2ccc(N3CCOCC3)cc2C)n1` (centres undefined) | 61.87 |
| 42 | `Cc1nn(CC(=O)Nc2ccon2)cc1Br` | 22.78 |
| 43 | `Cc1ccc(CN2CCC3(CCC(C(=O)N(C)C)O3)CC2)o1.O=C(O)C(F)(F)F` (centres undefined) | 7.165 |
| 44 | `CCc1nc2c(c(C)c(C)n2Cc2cccnc2)c(N)c1C` | -6.066 |
| 45 | `Cc1c(CN2C[C@@H](O)[C@H](Oc3cccc(F)c3)C2)cnn1C` | -27.75 |
| 46 | `O=C(c1cnc(Nc2ccccc2)nc1)N1CCC(O)(CO)CC1` | -12.6 |
| 47 | `Cc1noc(C2CCCN(C(=O)c3scnc3Cl)C2)n1` (centres undefined) | -42.07 |
| 48 | `N#Cc1cnn(C(=O)CCCOc2ccccc2Cl)c1N` | -69.39 |
| 49 | `CCC(C)(C)NC(=O)Cn1nc(C)nc1-c1cccc(C)c1` | 10.36 |
| 50 | `CCOC(=O)CSc1ccc(-c2nc(C)no2)cn1` | 18.91 |
| 51 | `Clc1ccccc1C1(c2ccnc(-c3ccncc3)n2)CCNCC1` | -10 |
| 52 | `O=C(c1ccnnc1)N1CCc2onc(Cn3cccn3)c2C1` | -46.74 |
| 53 | `O=C(COC1CCCC1)NCc1ccc(O)c(F)c1` | 23.42 |
| 54 | `Cn1ccc2ccnc(CC3CN(C(=O)c4cscn4)C3)c21` | 14.81 |
| 55 | `COc1ccc(-c2nc(C#N)c(N(C)C)o2)cc1S(=O)(=O)N1CCCC1` | -3.014 |
| 56 | `CCOC(=O)C1CCN(C(=O)c2cnn(-c3ccccc3F)c2N)CC1` | 2.527 |
| 57 | `CC(=O)N1CCC(c2nccnc2-c2ccc(F)c(F)c2)CC1` | -8.158 |
| 58 | `COc1ncccc1CNC(=O)c1cccc(C)n1` | 5.741 |
| 59 | `CCCc1nc2c(c(C)c(C)n2Cc2ccncc2)c(N)c1CC` | -17.12 |
| 60 | `Cl.Fc1ccc(-c2cnc(C3CCCN3)cn2)cc1` (centres undefined) | 3.019 |
| 61 | `CCNC(=O)[C@H]1CN(Cc2ccccc2)C[C@@H]1C(=O)c1ccccc1` | 41.32 |
| 62 | `[H][C@@]12CCN(C(=O)c3cccs3)C[C@]1([H])OCCNC2=O` | -23.16 |
| 63 | `COc1cccc2c1OCC(CNC(=O)CCn1cnnn1)C2` (centres undefined) | -9.906 |
| 64 | `CCN(C)S(=O)(=O)NCC1(c2cccc(Br)c2)CC1` | 37.01 |
| 65 | `CC(=O)N1CCN(S(=O)(=O)c2ccc(C)c(F)c2)CC1` | 15.7 |
| 66 | `O=C1CC(c2cccs2)c2snc(C(=O)O)c2N1` (centres undefined) | -25.67 |
| 67 | `O=C(Cc1cccnc1)N1CC(Cc2nccc3cc[nH]c23)C1` | 4.598 |
| 68 | `Fc1ccc(CN2CCCn3cnc(COCC4CC4)c3C2)cc1.O=C(O)C(F)(F)F` | 8.755 |
| 69 | `Cc1c[nH]c(C(=O)N2CCC(c3nnc(CN(C)CCO)n3C)CC2)c1` | 8.005 |
| 70 | `Cc1ccc(C(=O)N(C)CC(=O)NCC(F)(F)F)cn1` | -4.859 |
| 71 | `CCCC1(CO)CCCN(Cc2nccs2)C1` (centres undefined) | 3.608 |
| 72 | `O=C(c1ccn(-c2ccccc2Cl)n1)N1CCCSCC1` | 37.5 |
| 73 | `[H][C@]12C[C@H](CNC(=O)c3ccsc3)O[C@@]1([H])CN(C(=O)c1ccco1)C2` | -14.13 |
| 74 | `Cc1cc(N(C)C)nc(C2COCCN2Cc2csc(C)n2)n1` (centres undefined) | -47.44 |
| 75 | `CC(=O)N1CC(C(=O)NCCc2ncc(C)s2)C1` | 6.986 |
| 76 | `CCOC(=O)C(C)NC(=O)CCSc1ccc(F)cc1` (centres undefined) | 72.72 |
| 77 | `[H][C@@]12CN(C(=O)c3cscn3)C[C@]1([H])OCCN2Cc1csc(C)n1` | -3.008 |
| 78 | `O=C(c1cnco1)N1CCC(Cc2ccc3ncccc3c2)CC1` | 9.774 |
| 79 | `Cc1cc(C(=O)NCC(O)c2c(Cl)cccc2Cl)nn1C` (centres undefined) | -31.67 |

For reference, 8 entries once more:

- O=C(COC1CCCC1)NCc1ccc(O)c(F)c1 | 23.42%
- COc1ccc(-c2nc(C#N)c(N(C)C)o2)cc1S(=O)(=O)N1CCCC1 | -3.014%
- CCc1c(C)nc2cc(C3CCN(Cc4ccccc4F)C3)nn2c1O (centres undefined) | 8.753%
- O=C(CN1CCN(c2ccnc3c(F)ccc(F)c23)CC1)NC1CC1 | -14.17%
- CN(C)c1ccc(C(=O)N2CCCC2c2cnn(C)c2)cn1 (centres undefined) | 5.002%
- O=C(c1ccn(-c2ccccc2Cl)n1)N1CCCSCC1 | 37.5%
- COc1ccc(CNC(c2cccc(F)c2)c2cnn(C)c2)cc1 (centres undefined) | 25.11%
- Cc1ccc(CN2CCC3(CCC(C(=O)N(C)C)O3)CC2)o1.O=C(O)C(F)(F)F (centres undefined) | 7.165%